Measurements from PubChem BioAssay AID1487 (National Center for Advancing Translational Sciences (NCATS), 2009).
The other results are listed elsewhere or left out. The main result of the screen is listed elsewhere. These columns were measured beside it and carry no call. The list favours compounds with an active or inconclusive main result. Words in brackets tell the shape of the fitted curve; partial curves, single points and poor fits give uncertain potencies.

Assay: qHTS Assay for Modulators of Lamin A Splicing
Settings: HeLa LMNA splicing GFP/RFP minigene ratio, 48 h
Outline: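 Read-out is the ratio of GFP to DsRed2 object intensity, acquired by 488 nm laser-scanning cytometry on HeLa lamin A-EGFP minigene reporter cells. Compound incubation 48 hrs at 37 °C in Opti-MEM with 2% FBS; DMSO 0.5% final.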

[1] = measured here: RFP viability control channel
[2] = measured here: GFP splicing reporter channel

| Compound | AC50 [1] | AC50 [2] |
| --- | --- | --- |
| CCN(CC)c1ccc(N=Cc2ccc([N+](=O)[O-])o2)cc1 | 3.98 µM [rising, partial curve] |  |
| O=C(COc1cccnc1[N+](=O)[O-])Nc1ccccc1Sc1ccccc1 | 20 µM [falling, partial curve] | 31.6 µM [falling, partial curve] |
| CCN(CC)C(=O)Oc1ccc2c(=O)c(-c3ccc(OC)cc3)coc2c1 | 12.6 µM [rising, partial curve] |  |
| CCOc1cc(/C=C2/C(=N)N3OC(C)=CC3=NC2=O)ccc1OCCOc1ccccc1 | 12.6 µM [rising, single point] |  |
| Cc1ccc2cc(CN(Cc3nnnn3C3CCCC3)C3CCCCC3)c(=O)[nH]c2c1C |  | 5.62 µM [rising, single point] |
| COc1cc(OC)cc(C(=O)Nc2nc3ccccc3[nH]2)c1 | 14.1 µM [rising, single point] |  |
| COc1ccc(Cn2c(CCC(=O)NCc3ccco3)nc3cccnc32)cc1 | 0.891 µM [falling, full curve, poor fit] |  |
| CCc1nc(N2CCN(C(=O)c3ccco3)CC2)c2oc3ccccc3c2n1 | 11.2 µM [rising, partial curve] |  |
| CCc1nnc(NC(=O)CSc2nnc3c(n2)[nH]c2ccccc23)s1 |  | 0.0398 µM [rising, full curve, poor fit] |
| Cn1c(=O)c2c(nc(SCC(=O)NCC3CCCO3)n2Cc2ccc(F)cc2)n(C)c1=O (centres undefined) |  | 28.2 µM [falling, partial curve, poor fit] |
| CC(=O)c1ccc(OCC(=O)c2ccc(-c3ccccc3)cc2)cc1 | 28.2 µM [rising, partial curve] | 22.4 µM [rising, partial curve, poor fit] |
| COc1ccc2[nH]c(=O)c(CNc3ccc(C)c(C)c3)cc2c1 | 11.2 µM [rising, partial curve] | 3.16 µM [rising, partial curve] |
| Cc1cc2ccccc2nc1SCC(=O)NC1CCCCC1 | 0.316 µM [rising, partial curve] | 0.316 µM [rising, partial curve] |
| O=S(=O)(Nc1cccc2c1ccc1cccn12)c1cccs1 |  | 35.5 µM [rising, single point] |
| O=C1/C(=C\c2ccco2)SC(=S)N1c1ccc(O)cc1 | 14.1 µM [rising, partial curve] | 12.6 µM [rising, partial curve] |
| CCCC(=O)Nc1nc(-c2ccc(OC)cc2)cs1 | 25.1 µM [rising, single point] |  |
| OCCC1CN(Cc2cc3c(cc2Cl)OCO3)CCN1C1CCCC1 (centres undefined) |  | 35.5 µM [falling, single point] |
| O=C(CC(Nc1ccccc1)c1ccc(F)cc1)c1ccccc1 (centres undefined) |  | 11.2 µM [falling, partial curve] |

As a short view, some entries already given.

| Compound | AC50 [1] | AC50 [2] |
| --- | --- | --- |
| O=C(COc1cccnc1[N+](=O)[O-])Nc1ccccc1Sc1ccccc1 | 20 µM [falling, partial curve] | 31.6 µM [falling, partial curve] |
| CCN(CC)C(=O)Oc1ccc2c(=O)c(-c3ccc(OC)cc3)coc2c1 | 12.6 µM [rising, partial curve] |  |
| CCOc1cc(/C=C2/C(=N)N3OC(C)=CC3=NC2=O)ccc1OCCOc1ccccc1 | 12.6 µM [rising, single point] |  |
| Cc1ccc2cc(CN(Cc3nnnn3C3CCCC3)C3CCCCC3)c(=O)[nH]c2c1C |  | 5.62 µM [rising, single point] |
| COc1cc(OC)cc(C(=O)Nc2nc3ccccc3[nH]2)c1 | 14.1 µM [rising, single point] |  |
| COc1ccc(Cn2c(CCC(=O)NCc3ccco3)nc3cccnc32)cc1 | 0.891 µM [falling, full curve, poor fit] |  |
| CCc1nc(N2CCN(C(=O)c3ccco3)CC2)c2oc3ccccc3c2n1 | 11.2 µM [rising, partial curve] |  |
| CCc1nnc(NC(=O)CSc2nnc3c(n2)[nH]c2ccccc23)s1 |  | 0.0398 µM [rising, full curve, poor fit] |
| Cn1c(=O)c2c(nc(SCC(=O)NCC3CCCO3)n2Cc2ccc(F)cc2)n(C)c1=O (centres undefined) |  | 28.2 µM [falling, partial curve, poor fit] |

Additional compounds follow:

| Compound | AC50 [1] | AC50 [2] |
| --- | --- | --- |
| CC1=C(C(=O)OCC2CCCO2)C(c2coc3ccccc3c2=O)C2=C(CC(C)(C)CC2=O)N1 (centres undefined) | 35.5 µM [falling, single point] |  |
| COc1cc2c(cc1OC)CN(CC(=O)NC(=O)NCc1ccccc1)CC2 | 0.02 µM [rising, full curve, poor fit] |  |
| CCOC(=O)c1ccc(NC(=O)CSc2nc3ncc(Br)c(C)c3[nH]2)cc1 | 0.141 µM [falling, full curve] |  |
| Cc1ccc(S(=O)(=O)N2CN(Cc3ccco3)c3nc4ccccc4nc32)cc1 | 14.1 µM [rising, partial curve] | 11.2 µM [rising, partial curve, poor fit] |
| CCN(C(=O)c1ccc2c(c1)N(Cc1cccc(Cl)c1)C(=O)c1ccccc1S2=O)c1ccccc1 (centres undefined) |  | 31.6 µM [rising, single point] |
| COc1ccc(-c2noc(CCCOc3ccccc3)n2)cc1OC | 3.16 µM [rising, partial curve] |  |
| Cc1c(NC(=O)COC(=O)C(c2ccc(Cl)cc2)C(C)C)c(=O)n(-c2ccccc2)n1C (centres undefined) | 12.6 µM [rising, partial curve] | 10 µM [rising, partial curve] |
| COc1cccc(CNC(=O)CCl)c1 |  | 20 µM [falling, partial curve, poor fit] |
| C/C=C/c1ccc(OCCCCOc2ccc(OC)cc2)c(OC)c1 | 35.5 µM [rising, single point] |  |
| Cc1ccc(C)c(CSc2nc3c([nH]c4ccccc43)c(=O)n2C)c1 | 0.0398 µM [falling, full curve, poor fit] | 1 µM [falling, full curve, poor fit] |
| COc1ccc(/C=N/NC(=O)CN(CCc2ccccc2)S(=O)(=O)c2ccc(NC(C)=O)cc2)cc1OC | 17.8 µM [rising, single point] |  |
| O=C(CSCc1ccc(Cl)cc1)N/N=C/c1ccc(Cl)cc1Cl | 17.8 µM [rising, single point] |  |
| COc1ccc(-c2cc(C(F)(F)F)n3ncc(C(=O)N4CCc5ccccc5C4)c3n2)cc1 | 35.5 µM [rising, single point] | 20 µM [rising, single point] |
| CC(=O)C1=C(C)NC(SCC(=O)c2ccc(Cl)cc2)=C(C#N)C1c1ccco1 (centres undefined) | 25.1 µM [rising, single point] | 12.6 µM [rising, partial curve] |
| O=[N+]([O-])c1cccc2ccc(/C=C/c3ccc(Cl)cc3)nc12 | 12.6 µM [rising, partial curve, poor fit] | 11.2 µM [rising, partial curve] |
| Cc1nc2ccc(S(=O)(=O)Nc3ccccc3C)cc2s1 | 12.6 µM [rising, partial curve] |  |
| CCOC(=O)N1CCC(Nc2c(N3CCN(c4cccc(C(F)(F)F)c4)CC3)c(=O)c2=O)CC1 | 35.5 µM [rising, single point] | 17.8 µM [rising, partial curve, poor fit] |
| COc1cccc(/C=C/C(=O)c2ccc(NS(=O)(=O)c3ccc(C)cc3)cc2)c1 | 31.6 µM [falling, single point] | 15.8 µM [falling, single point] |
